Laboratory results from paper PMC5377504.
Results are given in words; binding and its absence hold for the method and conditions named. Binding seen in cells or lysates may run through a third protein. For some of these results: Binding can be weak; no strength is given. Where a sequence is shown, tags or fusion partners need not be part of it.

T1: UvrA-6His (E. coli) (UniProt P0A698)
T1 sequence: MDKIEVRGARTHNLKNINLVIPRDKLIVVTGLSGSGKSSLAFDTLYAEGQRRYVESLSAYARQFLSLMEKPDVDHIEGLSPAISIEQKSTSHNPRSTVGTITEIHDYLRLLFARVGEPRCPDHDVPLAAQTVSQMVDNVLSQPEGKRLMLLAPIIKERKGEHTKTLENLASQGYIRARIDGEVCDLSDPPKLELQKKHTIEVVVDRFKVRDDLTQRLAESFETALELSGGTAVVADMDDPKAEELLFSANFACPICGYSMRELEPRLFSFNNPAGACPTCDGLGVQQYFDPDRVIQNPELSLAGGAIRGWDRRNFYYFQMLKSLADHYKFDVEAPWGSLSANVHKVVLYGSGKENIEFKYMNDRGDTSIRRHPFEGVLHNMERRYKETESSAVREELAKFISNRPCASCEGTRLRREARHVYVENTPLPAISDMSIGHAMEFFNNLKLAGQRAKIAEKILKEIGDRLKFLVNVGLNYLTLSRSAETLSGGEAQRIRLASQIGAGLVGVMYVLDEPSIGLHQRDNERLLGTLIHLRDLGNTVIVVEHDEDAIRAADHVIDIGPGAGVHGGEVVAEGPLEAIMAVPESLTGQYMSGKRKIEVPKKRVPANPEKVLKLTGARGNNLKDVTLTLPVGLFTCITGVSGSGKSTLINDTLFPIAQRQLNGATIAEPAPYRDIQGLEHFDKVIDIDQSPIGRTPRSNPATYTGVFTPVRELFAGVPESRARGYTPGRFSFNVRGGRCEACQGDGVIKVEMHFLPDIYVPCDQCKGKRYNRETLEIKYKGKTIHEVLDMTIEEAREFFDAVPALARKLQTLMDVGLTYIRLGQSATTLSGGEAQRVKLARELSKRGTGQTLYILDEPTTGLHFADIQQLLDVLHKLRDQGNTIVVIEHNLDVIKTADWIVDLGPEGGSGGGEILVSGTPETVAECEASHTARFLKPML

B1: UvrA-FLAG (enzyme, UniProt P0A698 1-940)
chain: MDKIEVRGARTHNLKNINLVIPRDKLIVVTGLSGSGKSSLAFDTLYAEGQRRYVESLSAYARQFLSLMEKPDVDHIEGLSPAISIEQKSTSHNPRSTVGTITEIHDYLRLLFARVGEPRCPDHDVPLAAQTVSQMVDNVLSQPEGKRLMLLAPIIKERKGEHTKTLENLASQGYIRARIDGEVCDLSDPPKLELQKKHTIEVVVDRFKVRDDLTQRLAESFETALELSGGTAVVADMDDPKAEELLFSANFACPICGYSMRELEPRLFSFNNPAGACPTCDGLGVQQYFDPDRVIQNPELSLAGGAIRGWDRRNFYYFQMLKSLADHYKFDVEAPWGSLSANVHKVVLYGSGKENIEFKYMNDRGDTSIRRHPFEGVLHNMERRYKETESSAVREELAKFISNRPCASCEGTRLRREARHVYVENTPLPAISDMSIGHAMEFFNNLKLAGQRAKIAEKILKEIGDRLKFLVNVGLNYLTLSRSAETLSGGEAQRIRLASQIGAGLVGVMYVLDEPSIGLHQRDNERLLGTLIHLRDLGNTVIVVEHDEDAIRAADHVIDIGPGAGVHGGEVVAEGPLEAIMAVPESLTGQYMSGKRKIEVPKKRVPANPEKVLKLTGARGNNLKDVTLTLPVGLFTCITGVSGSGKSTLINDTLFPIAQRQLNGATIAEPAPYRDIQGLEHFDKVIDIDQSPIGRTPRSNPATYTGVFTPVRELFAGVPESRARGYTPGRFSFNVRGGRCEACQGDGVIKVEMHFLPDIYVPCDQCKGKRYNRETLEIKYKGKTIHEVLDMTIEEAREFFDAVPALARKLQTLMDVGLTYIRLGQSATTLSGGEAQRVKLARELSKRGTGQTLYILDEPTTGLHFADIQQLLDVLHKLRDQGNTIVVIEHNLDVIKTADWIVDLGPEGGSGGGEILVSGTPETVAECEASHTARFLKPML

Key:
Assay in all cases: pull-down; called coimmunoprecipitation by the paper; His-tagged protein as bait on Ni2+ resin, FLAG-tagged protein passed through; washes with 20 and 40 mM imidazole, elution with 250 mM imidazole; Western blot with anti-His and anti-FLAG; 'purified protein samples'; both purified
UvrA-6His (E. coli) = target: T1, UvrA-6His (E. coli)
[1] = target: M1-23-6His (Pectobacterium bacteriophage ΦM1)
[2] = target: M1-O-23-6His (Pectobacterium bacteriophage ΦM1 (escape mutant ΦM1-O))

Row | Molecule | binding (UvrA-6His (E. coli)) | binding [1] | binding [2]
1 | M1-O-23FLAG | no binding |  | 
2 | M1-23-FLAG (Pectobacterium bacteriophage ΦM1) | binds |  | 
3 | B1 |  | binds | no binding
